From patent US20240199685 (published 2024) come the findings set out here.

The data set can be described thus: general procedure: Fmoc solid-phase peptide synthesis; Fmoc-Rink Amide AM Resin, substitution 0.35 mmol/g. The note with it: whole synthesis.
[1] abbreviates: scale of the general procedure 230 grams of resin, run 1.
Where [2] appears, read: scale of the general procedure 230 grams of resin, run 2.

Turning to setmelanotide, the “crude purity (method not given)” value (scale 1 mmol) came to 86.9%; the “crude purity (method not given)” value under setting [1] is “greater than 85%”; the “crude purity (method not given)” value under setting [2] was “greater than 80%”; the “crude purity (method not given)” value (scale of the general procedure 230 grams of resin, run 3) is 64%; the “crude purity (method not given)” value (scale of the general procedure 230 grams of resin, run 4) is “greater than 80%”; the “crude purity (method not given)” value (scale of the general procedure 230 grams of resin, run 5) was “greater than 85%”. Also, the “crude purity (method not given)” value (scale of the general procedure 230 grams of resin, run 6) is reported as 78%. Further, the crude yield result is “about 20%” under setting [1] and 37-41% under setting [2].
